Assay: Ultracentrifugation: immobilization of ruthenium at DMPG and DMPC vesicles
Type: physicochemical
Details: after irradiation

## [Ru(terpy)(bpy)(OH2)](BF4)2 [[Ru(terpy)(bpy)(OH2)]^2+]
Anionic DMPG vesicles
  complexes contained in the pellet: ~85%
  initial absorbance retained in supernatant: ~15%
Neutral DMPC vesicles
  interaction with the lipid bilayer: essentially non-interacting with the lipid bilayer
